Reference: publication PMC12591160, “Polyadenylation Complex CFII Recognizes Downstream Cis‐element for Pre‐mRNA Polyadenylation Through Interaction with an RNA‐Binding Protein in Arabidopsis”
These are yes or no findings as the source states them, for the method shown. For some of these results: In cells and extracts the contact can be indirect. Some binding calls cover weakened binding; strength is not graded here. Tags and fused reporters may be left off the sequences shown.

Assays:
[1] = target: T1, FPA with a FLAG tag (Arabidopsis protoplasts) (Arabidopsis thaliana), Q8LPQ9; assay: co-IP; Arabidopsis protoplasts co-transformed with FLAG-tagged FPA and a MYC-tagged protein; lysate (150 mM NaCl, 0.2% Triton X-100, pH 7.4) on anti-FLAG M2 magnetic beads, 2 h at 4 °C; blots with anti-FLAG and anti-MYC; conditions: remark: other sources report otherwise
T1 chain: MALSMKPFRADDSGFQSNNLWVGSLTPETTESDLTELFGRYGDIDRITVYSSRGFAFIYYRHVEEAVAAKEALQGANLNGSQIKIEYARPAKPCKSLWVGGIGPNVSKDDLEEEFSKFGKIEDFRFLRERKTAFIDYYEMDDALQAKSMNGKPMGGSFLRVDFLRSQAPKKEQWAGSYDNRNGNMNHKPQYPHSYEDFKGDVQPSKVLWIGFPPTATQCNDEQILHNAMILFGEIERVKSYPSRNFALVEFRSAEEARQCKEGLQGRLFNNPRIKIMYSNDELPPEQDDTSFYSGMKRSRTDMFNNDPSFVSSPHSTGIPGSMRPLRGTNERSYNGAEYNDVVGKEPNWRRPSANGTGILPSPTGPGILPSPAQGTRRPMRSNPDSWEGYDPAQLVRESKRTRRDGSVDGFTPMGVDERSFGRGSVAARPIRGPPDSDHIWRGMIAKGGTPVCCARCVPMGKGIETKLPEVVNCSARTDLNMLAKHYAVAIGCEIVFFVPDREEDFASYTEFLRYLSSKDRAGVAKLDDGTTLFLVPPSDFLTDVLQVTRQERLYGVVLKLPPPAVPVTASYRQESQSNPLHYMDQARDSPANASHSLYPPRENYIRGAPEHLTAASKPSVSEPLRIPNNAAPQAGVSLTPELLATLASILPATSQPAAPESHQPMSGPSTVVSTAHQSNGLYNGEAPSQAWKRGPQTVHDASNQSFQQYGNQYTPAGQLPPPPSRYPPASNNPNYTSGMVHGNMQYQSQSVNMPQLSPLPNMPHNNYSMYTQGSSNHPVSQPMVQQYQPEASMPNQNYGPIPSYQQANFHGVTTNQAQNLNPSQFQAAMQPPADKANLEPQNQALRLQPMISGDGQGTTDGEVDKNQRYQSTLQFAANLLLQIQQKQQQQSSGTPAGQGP

[2] = target: T2, FPA, full length, yeast two-hybrid fusion (Arabidopsis thaliana) (UniProt Q8LPQ9); assay: two-hybrid; two plasmids (AD, BD) co-transformed into yeast strain AH109; growth on SD/-LWHA; full-length and truncated FPA and PCFS4
T2 sequence: T1 chain

[3] = target: T3, FPA with a FLAG tag, expressed in Arabidopsis protoplasts (Arabidopsis thaliana) (UniProt Q8LPQ9); assay: co-IP; proteins expressed in Arabidopsis protoplasts; immunoprecipitated with anti-FLAG M2 magnetic beads, 2 h at 4 °C; lysis buffer 50 mM phosphate pH 7.4, 150 mM NaCl, 0.2% Triton X-100, 10% glycerol; blots with anti-FLAG and anti-MYC
T3 sequence: T1 chain

[4] = target: T4, CLPS3-FLAG of CLPS3-FLAGres transgenic Arabidopsis plants (Arabidopsis thaliana) (UniProt Q9SR06); assay: co-IP; total protein extracts from PCFS4-MYCres or PCFS4-MYCres/CLPS3-FLAGres Arabidopsis plants; immunoprecipitated with M2 magnetic beads; blots with the indicated antibodies
T4 sequence: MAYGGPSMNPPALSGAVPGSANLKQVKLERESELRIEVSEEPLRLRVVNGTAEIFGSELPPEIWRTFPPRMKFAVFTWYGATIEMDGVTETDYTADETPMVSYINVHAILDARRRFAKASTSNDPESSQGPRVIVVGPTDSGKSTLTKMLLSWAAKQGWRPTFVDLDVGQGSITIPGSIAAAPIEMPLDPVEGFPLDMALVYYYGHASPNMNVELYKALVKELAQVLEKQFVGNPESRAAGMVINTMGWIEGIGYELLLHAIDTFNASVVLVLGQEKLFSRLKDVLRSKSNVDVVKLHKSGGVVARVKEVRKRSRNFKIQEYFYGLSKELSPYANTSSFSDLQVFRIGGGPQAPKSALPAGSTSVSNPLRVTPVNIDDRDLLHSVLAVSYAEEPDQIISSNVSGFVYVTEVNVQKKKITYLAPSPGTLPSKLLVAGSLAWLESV

B1: CstF64 with MYC tag (Arabidopsis protoplasts), Q9M9G6 1-461 (protein)
chain: MASSSSQRRCVFVGNIPYDATEEQLREICGEVGPVVSFRLVTDRETGKPKGYGFCEYKDEETALSARRNLQSYEINGRQLRVDFAENDKGTDKTRDQSQGGPGLPSTTTVTESQKQIGGPVDSNMHQPVGLHLATTAASVIAGALGGPQVGSQFTQSNLQVPASDPLALHLAKMSRSQLTEIISSIKLMATQNKEHARQLLVSRPQLLKAVFLAQVMLGIVSPQVLQSPNIVQAPSHMTGSSIQDAQLSGQNLLPPLAQRSQQLSRAPHSQYPVQQSSKQPFSQIPQLVAQPGPSSVNPPPRSQVKVENAPFQRQQVVPASTNIGYSSQNSVPNNAIQPSQVPHQALPNSVMQQGGQTVSLNFGKRINEGPPHQSMNRPSKMMKVEDRRTTSLPGGHVSNSMLPNQAQAPQTHISPDVQSTLLQQVMNLTPEQLRLLTPEQQQEVLKLQQALKQDHMMQPS
- binding [1]: no binding

B2: PCFS4, full length, yeast two-hybrid fusion (protein, UniProt Q0WPF2 1-808)
chain: MDSEKILNPRLVSINSTSRKGMSVELPQKPPPPPSLLDRFKALLNQREDEFGGGEEVLPPSMDEIVQLYEVVLGELTFNSKPIITDLTIIAGEQREHGEGIANAICTRILEAPVEQKLPSLYLLDSIVKNIGRDYGRYFSSRLPEVFCLAYRQAHPSLHPSMRHLFGTWSSVFPPPVLRKIDMQLQLSSAANQSSVGASEPSQPTRGIHVNPKYLRRLEPSAAENNLRGINSSARVYGQNSLGGYNDFEDQLESPSSLSSTPDGFTRRSNDGANPSNQAFNYGMGRATSRDDEHMEWRRKENLGQGNDHERPRALIDAYGVDTSKHVTINKPIRDMNGMHSKMVTPWQNTEEEEFDWEDMSPTLDRSRAGEFLRSSVPALGSVRARPRVGNTSDFHLDSDIKNGVSHQLRENWSLSQNYPHTSNRVDTRAGKDLKVLASSVGLVSSNSEFGAPPFDSIQDVNSRFGRALPDGTWPHLSARGPNSLPVPSAHLHHLANPGNAMSNRLQGKPLYRPENQVSQSHLNDMTQQNQMLVNYLPSSSAMAPRPMQSLLTHVSHGYPPHGSTIRPSLSIQGGEAMHPLSSGVLSQIGASNQPPGGAFSGLIGSLMAQGLISLNNQPAGQGPLGLEFDADMLKIRNESAISALYGDLPRQCTTCGLRFKCQEEHSKHMDWHVTKNRMSKNHKQNPSRKWFVSASMWLSGAEALGAEAVPGFLPTEPTTEKKDDEDMAVPADEDQTSCALCGEPFEDFYSDETEEWMYKGAVYMNAPEESTTDMDKSQLGPIVHAKCRPESNGGDMEEGSQRKKMRS
- binding [2]: binds

B3: PCFS4 with a MYC tag, expressed in Arabidopsis protoplasts (protein, UniProt Q0WPF2 1-808)
chain: B2 chain
- binding [3]: binds

B4: PCFS4-MYC of PCFS4-MYCres transgenic Arabidopsis plants (protein, UniProt Q0WPF2 1-808)
chain: B2 chain
- binding [4]: binds
